No constants are given. Whether binding was seen depends on the method and setting. Some binding calls cover weakened binding; strength is not graded here.
Biological target: CTLA4 (UniProt P16410)
Experiment: ELISA titration, OD405

Sequences of proteins named here, by UniProt entry; tags and fusion partners are left off. Residues count along the entry.
UniProt P16410, residues 37-162: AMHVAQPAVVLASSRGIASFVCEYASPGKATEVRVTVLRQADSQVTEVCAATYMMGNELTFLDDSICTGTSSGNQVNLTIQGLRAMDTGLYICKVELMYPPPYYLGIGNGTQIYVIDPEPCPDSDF

B1: 319-8-2 (antibody, V domains shown)
VH: QVQLVESGGDVVQPGGSLRLSCAASGVAFSDSGMHWVRQAPGKGLEWLAVIWYDGSKKHYAEAVKGRFTISRDNSKNMLYLQMNSLRVDDTAIYYCAKAHSQDDYWGQGTLVTVSS
VL: EIVLTQSPATLSLSPGERATLSCRATPSIDSYLAWYQQKSGQSPRLIIHDASIRATGIPDRFSGSGSGTDFTLTISSLEPEDFAVYYCQQRDSWPLAFGGGTKVEFK
  binding: binds

Source: patent US20200181265A1
